Source: US20240262817A1, “QUINAZOLINE DERIVATIVES TARGETING R(CCUG) REPEATS IN MYOTONIC DYSTROPHY TYPE 2” (University of Florida Research Foundation, Incorporated, priority 2021, published 2024)
Some entries share one result that the patent states for a list of compounds.

System: r(CCUG)12-MBNL1 complex
Assay: TR-FRET assay, disruption of pre-formed r(CCUG)12-MBNL1 complex
Type: biochemical
Conditions: in vitro, read-out: IC50 for disrupting an r(CCUG)12-MBNL1 complex
Source text: Of the 44 hits, 38 contained a similar substituted N2-phenylquinazoline-2,4-diamine core, while the other hits contained benzimidazoles and indazoles (Figure S2). Importantly, these 44 compounds are drug-like as they have similar physicochemical properties to the rest of the library and to known-drugs in Drug Bank (FIG. 2A). On average, the 44 hit compounds have a molecular weight of 327±35 g/mol, a cLogP of 3.2±0.9. TPSA of 76±15 Å, and 2.5±0.9 hydrogen bond donors. The in vitro potencies (IC50s) of the 44 compounds were then measured in the TR-FRET assay, affording seven compounds (1-7) with IC50s <50 μM (highlighted in red in FIGS. 2B & 2C).
In vitro IC50 measurements: IC50 measurements for disruption of r(CCUG)12-MBNL1 complex was completed using a previously reported TR-FRET assay with minor modifications.^23, 24 Briefly, 5′-biotinylated r(CCUG)12 (SEQ ID NO: 15) was folded in 1× Folding Buffer (20 mM HEPES, pH 7.5, 110 mM KCl, and 10 mM NaCl) at 60° C. for 5 min then cooled to room temperature. The buffer was adjusted to 1× Assay Buffer (20 mM HEPES, pH 7.5, 110 mM KCl, 10 mM NaCl, 2 mM MgCl2, 2 mM CaCl2), 5 mM DTT. 0.1% BSA, and 0.5% Tween-20).
Next, MBNL1-His6 was added, and the samples were incubated at room temperature for 15 min. Then compounds were added, and the samples were incubated for another 15 min at room temperature. The final concentrations of r(CCUG)12 (SEQ ID NO: 15) and MBNL1 were 80 nM and 60 nM. A solution of streptavidin-XL665 and anti-His6-Tb antibody was then added in a total volume of 10 μL, with final concentrations of 40 nM and 0.44 ng/μL, respectively. The samples were incubated for 30 min at room temperature and added to a white 384-well plate, where TR-FRET was measured on a Molecular Devices SpectraMax M5 plate reader using an excitation wavelength of 345-nm and a 420-nm cutoff. The ratios of fluorescence intensity at 545 and 665 nm were calculated, and ratios in the absence of a compound and in the absence of RNA were used to calculate percent disruption. The resulting curves were fit to equation 1 to determine IC50 values:
[formula] • where y is ratio of fluorescence intensities at 545 nm and 665 nm (F545/F665), x is the concentration of a compound, B is F545/F665 value at max FRET effect (solution has RNA and protein but no compound added); A is F545/F665 value at min FRET effect (solution has antibodies but no RNA, protein, or compound); and the IC50 is the concentration of a compound where half of the protein is displaced by a compound.

Row | SMILES | IC50 [µM]
1 | Cc1ccc2nc(Nc3ccc4nc(NC5CCN(Cc6ccccc6)CC5)sc4c3)nc(NCCCO)c2c1 [Compound 71, 3-((2-((2-((1-benzylpiperidin-4-yl)amino)benzo[d]thiazol-6-yl)amino)-6-methylquinazolin-4-yl)amino)propan-1-ol] | < 5
2 | Cc1ccc2nc(Nc3ccc4nc(NCC(C)C)sc4c3)nc(NCCCO)c2c1 [Compound 73, 3-((2-((2-(isobutylamino)benzo[d]thiazol-6-yl)amino)-6-methylquinazolin-4-yl)amino)propan-1-ol] | < 5
3 | Cc1ccc2nc(Nc3ccc4nc(NCCN5CCOCC5)sc4c3)nc(NCCCO)c2c1 [Compound 74, 3-((6-methyl-2-((2-((2-morpholinoethyl)amino)benzo[d]thiazol-6-yl)amino)quinazolin-4-yl)amino)propan-1-ol] | < 5
4 | Cc1ccc2nc(Nc3ccc4nc(NCC(C)(C)O)sc4c3)nc(NCCCO)c2c1 [Compound 78, 3-((2-((2-((2-hydroxy-2-methylpropyl)amino)benzo[d]thiazol-6-yl)amino)-6-methylquinazolin-4-yl)amino)propan-1-ol] | < 5
5 | Cc1ccc2nc(Nc3ccc4nc(N5CCN(C)CC5)sc4c3)nc(NCCCO)c2c1 [Compound 82, 3-((6-methyl-2-((2-(4-methylpiperazin-1-yl)benzo[d]thiazol-6-yl)amino)quinazolin-4-yl)amino)propan-1-ol] | < 5
6 | Cc1ccc2nc(Nc3ccc4nc(NCCN(C)C)sc4c3)nc(NCCCO)c2c1 [Compound 79, 3-((2-((2-((2-(dimethylamino)ethyl)amino)benzo[d]thiazol-6-yl)amino)-6-methylquinazolin-4-yl)amino)propan-1-ol] | < 5
7 | Cc1ccc2nc(Nc3ccc4nc(N5CCOCC5)sc4c3)nc(NCCCO)c2c1 [Compound 72, 3-((6-methyl-2-((2-morpholinobenzo[d]thiazol-6-yl)amino)quinazolin-4-yl)amino)propan-1-ol] | < 5
